# Laboratory results published in PubChem BioAssay AID540276 (National Center for Advancing Translational Sciences (NCATS), 2011).
# Several values for one entry are separate records, joined by “and”; a condition that tells them apart may be missing. Identical values can stand only once. Among all 300,000 compounds or so, about 5,400 (1.8%) were called active. The shares of active, inactive and inconclusive entries below differ from those in the screen. Calls follow the shape of the full dose curve; tested in HEK293 cells. Potencies of inconclusive entries are doubtful fits and often do not repeat.
# Assay: qHTS for inhibitors of binding or entry into cells for Marburg Virus
# Conditions: Marburg virus pseudotyped entry inhibition, cell reporter; activity change, negative = inhibition: at 37.8 µM (top of the series) unless noted
# % is scaled to controls: 0 for no effect and ±100 for the full control effect; potency is read from the fitted curve at half-maximal effect.
Compound,"activity change, negative = inhibition",Potency
COc1cc(Cn2c(=O)sc3ccccc32)ccc1OC(C)C,inactive: 0.132% [at 46.1 µM],–
N#Cc1nc(N2CCCC2)nc(N2CCCC2)n1,–,"inconclusive: 14.1 µM [inhibitor, partial curve, poor fit]"
COc1ccc2c(c1)CCc1c(C(=O)Nc3cc(C)ccc3O)noc1-2,–,"inconclusive: 7.08 µM [activator, full curve, poor fit]"
CCOC(=O)c1c(NC(=O)C2=C(C)NC(=S)NC2c2ccc(F)cc2F)sc(C)c1C (stereo not drawn),–,"inconclusive: 11.2 µM [inhibitor, partial curve, poor fit]"
CCN(CC)Cc1nc2c(c(=O)[nH]1)C1(CCCC1)Cc1ccccc1-2,–,"inconclusive: 8.2 µM [inhibitor, partial curve]"
O=c1c(-c2n[nH]c(=S)n2-c2ccccc2)cccn1Cc1cccc(Cl)c1,–,"inconclusive: 0.794 µM [inhibitor, full curve, poor fit]"
COc1cccc(/C(O)=C2\C(=O)C(=O)N(CCN(C)C)[C@@H]2c2ccc(Br)cc2)c1,inactive: 0.302% [at 46.1 µM],–
Cc1cc(NC(=O)C2CC2)ccc1NC(=O)c1cccs1,–,"inconclusive: 20 µM [activator, partial curve, poor fit]"
COCc1cc(C)nc2sc3c(c12)NC(c1ccc(O)cc1)N(c1ccc(OC)cc1)C3=O (stereo not drawn),–,"inconclusive: 0.631 µM [inhibitor, full curve, poor fit]"
CC(=O)OCC1CCCC2=C(C)C(=O)CCC21COC(C)=O (stereo not drawn),–,"inconclusive: 5.62 µM [activator, single point]"
O=C(NC1=NCCS1)c1sc2cc(Cl)cc(Cl)c2c1Cl,–,"inconclusive: 35.5 µM [activator, single point]"
CN(C)S(=O)(=O)NCCNc1ccc(C(F)(F)F)cc1[N+](=O)[O-],inactive: 6.03%,–
CC1CCN(CCC(=O)Nc2ccccc2)CC1,–,"inconclusive: 25.1 µM [inhibitor, single point]"
O=C1Nc2c(Br)cc(Br)cc2C1(O)N1CCOCC1 (stereo not drawn),–,"inconclusive: 7.3 µM [inhibitor, partial curve, poor fit]"
COc1ccccc1OCC(=O)N1CCCC(Nc2ccc(F)c(F)c2)C1 (stereo not drawn),inactive: 1.52%,–
O=C(Nc1ccc(NC(=O)C2CC2)cc1)c1cccs1,–,"inconclusive: 0.794 µM [activator, full curve, poor fit]"
CCOc1nc(-c2ccccc2)ccc1-c1noc(COC)n1,inactive: 16.4%,–
CN(C)CCCN(C(=O)CCS(=O)(=O)c1ccccc1)c1nc2cc3c(cc2s1)OCO3,–,"inconclusive: 10 µM [inhibitor, partial curve, poor fit]"
Cc1ccc(CN(Cc2ccccn2)C(=O)Nc2c(F)cccc2F)cc1,inactive: 24.8% [at 46.1 µM],–
O=C1CC(c2ccccc2C(F)(F)F)c2c(c3ccccc3[nH]c2=O)O1 (stereo not drawn),inactive: 15.2% [at 46.1 µM],–
CCn1ccc(C(=O)Oc2ccc(Cl)cc2)n1,inactive: -4.36% [at 46.1 µM],–
O=C(COC(=O)C1CC1)Nc1ccc(N=Nc2ccccc2)cc1,–,"inconclusive: 16.4 µM [inhibitor, single point]"
CC(C)(C)OC(=O)NCCc1nnc(S(=O)(=O)Cc2ccc(Cl)cc2Cl)o1,–,"inconclusive: 12.6 µM [inhibitor, single point]"

Compound,"activity change, negative = inhibition",Potency
COC(=O)CSc1nc(NC(C)C)nc(N(C)C)n1,inactive: 0.106% [at 46.1 µM],–
O=C(c1noc2c1CCCC2)N1CCCC(N2CCN(c3ccccc3F)CC2)C1 (stereo not drawn),inactive: -17.5% [at 46.1 µM],–
CCOC(=O)C1=C(CS(=O)(=O)c2c(C)cc(C)cc2C)NC(=O)NC1c1cccc(OC)c1 (stereo not drawn),inactive: 5.16% [at 46.1 µM],–
COc1ccc(N(CC(=O)NCCc2cccc(C)c2)S(=O)(=O)c2c(C)nn(C)c2C)cc1,–,"inconclusive: 22.4 µM [inhibitor, single point]"
Cc1nc(C)c(C(=O)N/N=C/c2c[nH]c3ccccc23)s1,–,"inconclusive: 3.55 µM [inhibitor, full curve, poor fit]"
CCCN1C=CC(=C2C(=O)c3ccccc3C2=O)C=C1,–,active: 0.206 µM
CN(C)c1ccc(/C=N/NC(=O)CSc2ccccn2)cc1,inactive: 29.9% [at 46.1 µM],–
CC(C)Cn1c(SCC(=O)c2ccc(Cl)s2)nnc1-c1ccco1,inactive: -18.6%,–
Cc1ccn(C(=O)c2ccc(NC(=O)C3CCCCC3)cc2)n1,–,"inconclusive: 8.91 µM [activator, partial curve, poor fit]"
O=C(COC(=O)c1ccccc1N1C(=O)C2C3CCC(C3)C2C1=O)c1ccccc1 (stereo not drawn),inactive: 24.5%,–
COc1ccc(/C=N/NC(=O)c2cc(C(C)(C)C)[nH]n2)cc1COc1ccc(F)cc1F,–,"inconclusive: 5.62 µM [inhibitor, full curve, poor fit]"
CC1CCc2cc(F)ccc2N1S(=O)(=O)c1ccc(Cl)nc1 (stereo not drawn),–,"inconclusive: 22.4 µM [inhibitor, single point]"
Cc1ccc(NC(=O)COC(=O)/C=C/c2ccccc2)cc1S(=O)(=O)N1CCOCC1,–,"inconclusive: 6.31 µM [inhibitor, single point]"
O=C(/C=C(/c1ccc(Cl)cc1)n1cncn1)c1ccccc1,–,"inconclusive: 0.282 µM [activator, partial curve, poor fit]"
N/C(=N\OC(=O)Cc1cccs1)c1ccccc1,inactive: 3.12%,–
Cc1ccc(-n2c(SCC(=O)OC(C)C)nnc2-c2ccco2)cc1,–,"inconclusive: 11.2 µM [inhibitor, partial curve, poor fit]"
Cc1oc(-c2ccc(Cl)cc2)nc1CS(=O)CC(=O)NCc1ccc(Cl)cc1 (stereo not drawn),–,"inconclusive: 5.62 µM [activator, single point]"
Cc1ccc(C(=O)NCC(C)NC(=O)c2ccc(C)c([N+](=O)[O-])c2)cc1[N+](=O)[O-] (stereo not drawn),inactive: 0.0347%,–
Cn1c(=O)c2c(SCC(=O)NCc3ccco3)nc(CC(C)(C)C)nc2n(C)c1=O,inactive: -0.342%,–
CCn1c(-c2cc(OC)ccc2OC)csc1=Nc1c(C)n(C)n(-c2ccccc2)c1=O,–,"inconclusive: 35.5 µM [inhibitor, single point]"
COc1ccc(NC(=O)CSc2n[nH]c(CNc3cccc(C)c3)n2)cc1,–,"inconclusive: 0.316 µM [inhibitor, full curve, poor fit]"
COC(CNC(=O)c1ccc(N2CCc3ccccc32)c([N+](=O)[O-])c1)OC,–,"inconclusive: 0.112 µM [inhibitor, full curve, poor fit]"
CCCC(NS(=O)(=O)c1ccc(-c2ccc(=O)[nH]n2)s1)c1cccs1 (stereo not drawn),–,"inconclusive: 25.1 µM [inhibitor, single point]"

Compound,"activity change, negative = inhibition",Potency
N#C/C(=C\c1c(Oc2ccccc2Cl)nc2ccccn2c1=O)C(=O)NC1CCS(=O)(=O)C1 (stereo not drawn),–,"inconclusive: 12.6 µM [inhibitor, partial curve, poor fit]"
Cc1cc(C)n2nc(SCC(=O)Nc3ccccc3)nc2n1,–,"inconclusive: 1.58 µM [activator, partial curve, poor fit]"
CCCSc1ccc(-c2nn(-c3ccccc3)cc2/C=C(/C#N)C(=O)NCCCOC)cc1,inactive: -3.81%,–
Cc1cc(C)c(C)c(Cn2c(CO)nc3ccccc32)c1C,–,"inconclusive: 14.1 µM [inhibitor, partial curve, poor fit]"
COc1cc(-c2nnc(SCC(=O)Nc3ccc(F)c(Cl)c3)o2)cc(OC)c1OC,inactive: -5.2% [at 46.1 µM],–
COc1ccc(CCNC(=O)CSc2nncs2)cc1,–,"inconclusive: 0.251 µM [inhibitor, full curve, poor fit]"
Cc1cc(C(=O)Nc2nnc(C3CCCCC3)s2)cs1,–,"inconclusive: 1.3 µM [activator, full curve]"
Cc1nc2ccccc2c(=O)n1NC(=O)c1ccc([N+](=O)[O-])cc1Cl,–,"inconclusive: 11.2 µM [activator, single point]"
CC1CCCN(Cc2c(O)ccc3c(=O)c(-c4nc5ccccc5s4)c(N)oc23)C1 (stereo not drawn),–,"inconclusive: 22.4 µM [inhibitor, single point]"
O=C(NC1CC2CCCC(C1)N2Cc1ccccc1)C1CCCCC1 (stereo not drawn),–,"inconclusive: 16.4 µM [inhibitor, partial curve, poor fit]"
CCCn1ccnc1SCC(=O)Nc1c(C)n(C)n(-c2ccccc2)c1=O,–,"inconclusive: 3.55 µM [activator, partial curve, poor fit]"
C=CCn1c(C)cc(C(=O)COc2nncc3ccccc23)c1C,inactive: -5.21%,–
O=c1c2c3c(sc2ncn1/N=C/c1ccc(Br)o1)CCCC3,–,"inconclusive: 1.03 µM [activator, full curve, poor fit]"
O=C1c2ccccc2C2=Nc3ccccc3SC(c3ccc(Cl)cc3)C12 (stereo not drawn),–,"inconclusive: 29.1 µM [inhibitor, single point]"
Cc1cc(C(=O)N2CCN(C(c3ccccc3)c3ccccc3)CC2)no1,inactive: 10.9%,–
OCc1ccc(-c2nn(Cc3ccccc3)c3ccccc23)o1,–,active: 2.59 µM and active: 1.12 µM
O=C1/C(=C/c2ccc(O)cc2)SC(=S)N1Cc1cccnc1,–,"inconclusive: 12.6 µM [activator, single point]"
Cc1c(N2C(=O)/C(=C/c3ccc(N(C)C)cc3)N(C)C2=S)c(=O)n(-c2ccccc2)n1C,–,"inconclusive: 31.6 µM [inhibitor, partial curve, poor fit]"
O=C(CSc1ncn[nH]1)Nc1ccc(Br)cc1Br,–,"inconclusive: 31.6 µM [activator, single point]"
Cc1oc2nc(SCCCC(=O)NCCCO)nc(N)c2c1C,–,"inconclusive: 1.41 µM [activator, partial curve, poor fit]"
COc1cc(S(=O)(=O)Nc2ccccc2)ccc1N=Cc1c(C)[nH]n(-c2ccc(C)cc2)c1=O,inactive: -10%,–
CO/N=C(\C(=O)N[C@@H]1C(=O)N2C(C(=O)O)=C(COC(C)=O)CS[C@H]12)c1csc(N)n1 (stereo in doubt),–,"inconclusive: 0.1 µM [inhibitor, full curve, poor fit]"
